Reference: patent US20130261147A1, “COMPOSITION FOR PREVENTING OR TREATING DEMENTIA” (priority 2010, published 2013)
Some of these results come from one statement about several compounds together.

Tested on: cells
Assay: MTT Cell Proliferation assay, cell death activity
Format: cell-based
Conditions: 10 μg/ml, 8 hours
Procedure: In order to investigate the cell death activity caused by the compounds, lycoricidine and lycoricidinol, MTT Cell Proliferation assay method was used (ATCC catalog #30-1010K, Manassas, USA). After cells were treated with each compound having various concentrations for 8 hours, viable cells were measured quantitatively, and the results are shown in Table 7 and FIG. 8.

SMILES	Cell Death Rate (%) against Negative Control (listed as lycoricidine) [%]	Cell Death Rate (%) against Negative Control (listed as lycoricidinol) [%]
O=C1NC2C(=CC(O)C(O)C2O)c2cc3c(cc21)OCO3 (centres unmarked) [Lycoricidine, lycoricidine]	≤ 20	
O=C1NC2C(=CC(O)C(O)C2O)c2cc3c(c(O)c21)OCO3 (centres unmarked) [Lycoricidinol, lycoricidinol]		≤ 20
